In the supplement of paper PMC12823440, “Inhibitors supercharge kinase turnover through native proteolytic circuits” (Nature, 2025):
This is one part of the list. The calls rarely recur for the same compound in another form.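 Kinases, fused to nanoluciferase, were expressed in K562 cells; luminescence was measured every 4 h from 2 to 18 h as percent of control (DMSO = 100%, positive control = 0%). A time point is decreased if signal falls significantly (2 sigma). Hits were called by the authors by a rule that is not shown; the count of time points alone does not decide it.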

By UniProt entry, the sequences of proteins in these tests, tags left out. Where a name states a change or a piece, a line headed by the entry shows the natural chain unless it says otherwise.
UniProt P00519, whole entry: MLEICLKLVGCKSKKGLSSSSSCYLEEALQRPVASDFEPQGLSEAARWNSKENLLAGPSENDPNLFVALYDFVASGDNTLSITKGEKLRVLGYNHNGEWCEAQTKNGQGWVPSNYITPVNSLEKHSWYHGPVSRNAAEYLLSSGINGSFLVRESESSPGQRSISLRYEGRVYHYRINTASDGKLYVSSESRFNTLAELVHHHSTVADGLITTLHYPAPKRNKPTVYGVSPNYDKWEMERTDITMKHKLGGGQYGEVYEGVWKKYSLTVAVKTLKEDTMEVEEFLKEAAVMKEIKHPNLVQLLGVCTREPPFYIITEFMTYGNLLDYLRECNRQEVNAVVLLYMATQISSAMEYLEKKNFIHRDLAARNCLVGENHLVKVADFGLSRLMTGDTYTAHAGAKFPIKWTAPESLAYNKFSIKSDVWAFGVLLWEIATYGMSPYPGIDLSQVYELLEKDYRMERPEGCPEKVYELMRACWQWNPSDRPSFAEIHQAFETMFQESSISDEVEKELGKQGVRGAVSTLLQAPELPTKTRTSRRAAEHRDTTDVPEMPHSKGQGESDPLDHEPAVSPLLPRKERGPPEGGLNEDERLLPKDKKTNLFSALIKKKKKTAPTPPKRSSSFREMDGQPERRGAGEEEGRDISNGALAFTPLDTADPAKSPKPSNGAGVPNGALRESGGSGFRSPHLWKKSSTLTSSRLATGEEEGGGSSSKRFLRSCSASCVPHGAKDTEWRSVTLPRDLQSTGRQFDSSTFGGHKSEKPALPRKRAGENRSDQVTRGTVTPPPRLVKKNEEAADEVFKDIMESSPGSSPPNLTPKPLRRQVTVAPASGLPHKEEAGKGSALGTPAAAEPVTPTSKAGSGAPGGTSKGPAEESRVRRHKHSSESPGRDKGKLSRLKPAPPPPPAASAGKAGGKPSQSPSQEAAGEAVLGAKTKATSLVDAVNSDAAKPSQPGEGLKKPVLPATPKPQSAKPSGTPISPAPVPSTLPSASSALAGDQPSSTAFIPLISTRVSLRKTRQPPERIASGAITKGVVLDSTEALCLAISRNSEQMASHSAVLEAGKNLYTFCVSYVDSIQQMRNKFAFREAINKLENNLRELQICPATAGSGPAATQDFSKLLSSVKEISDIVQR
UniProt P31749: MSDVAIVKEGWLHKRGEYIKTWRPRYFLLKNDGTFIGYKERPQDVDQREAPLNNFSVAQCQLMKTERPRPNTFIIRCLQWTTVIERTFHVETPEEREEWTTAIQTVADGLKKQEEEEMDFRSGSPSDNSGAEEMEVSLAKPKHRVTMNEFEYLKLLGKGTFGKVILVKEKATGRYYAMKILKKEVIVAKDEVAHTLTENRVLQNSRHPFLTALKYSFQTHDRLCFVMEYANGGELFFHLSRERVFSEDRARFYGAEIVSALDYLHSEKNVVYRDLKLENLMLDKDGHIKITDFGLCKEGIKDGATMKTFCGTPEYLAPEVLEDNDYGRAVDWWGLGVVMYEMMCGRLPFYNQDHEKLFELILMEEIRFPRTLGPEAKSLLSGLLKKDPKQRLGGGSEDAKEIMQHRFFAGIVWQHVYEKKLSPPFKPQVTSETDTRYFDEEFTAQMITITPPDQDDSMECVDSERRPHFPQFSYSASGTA
UniProt Q9UM73: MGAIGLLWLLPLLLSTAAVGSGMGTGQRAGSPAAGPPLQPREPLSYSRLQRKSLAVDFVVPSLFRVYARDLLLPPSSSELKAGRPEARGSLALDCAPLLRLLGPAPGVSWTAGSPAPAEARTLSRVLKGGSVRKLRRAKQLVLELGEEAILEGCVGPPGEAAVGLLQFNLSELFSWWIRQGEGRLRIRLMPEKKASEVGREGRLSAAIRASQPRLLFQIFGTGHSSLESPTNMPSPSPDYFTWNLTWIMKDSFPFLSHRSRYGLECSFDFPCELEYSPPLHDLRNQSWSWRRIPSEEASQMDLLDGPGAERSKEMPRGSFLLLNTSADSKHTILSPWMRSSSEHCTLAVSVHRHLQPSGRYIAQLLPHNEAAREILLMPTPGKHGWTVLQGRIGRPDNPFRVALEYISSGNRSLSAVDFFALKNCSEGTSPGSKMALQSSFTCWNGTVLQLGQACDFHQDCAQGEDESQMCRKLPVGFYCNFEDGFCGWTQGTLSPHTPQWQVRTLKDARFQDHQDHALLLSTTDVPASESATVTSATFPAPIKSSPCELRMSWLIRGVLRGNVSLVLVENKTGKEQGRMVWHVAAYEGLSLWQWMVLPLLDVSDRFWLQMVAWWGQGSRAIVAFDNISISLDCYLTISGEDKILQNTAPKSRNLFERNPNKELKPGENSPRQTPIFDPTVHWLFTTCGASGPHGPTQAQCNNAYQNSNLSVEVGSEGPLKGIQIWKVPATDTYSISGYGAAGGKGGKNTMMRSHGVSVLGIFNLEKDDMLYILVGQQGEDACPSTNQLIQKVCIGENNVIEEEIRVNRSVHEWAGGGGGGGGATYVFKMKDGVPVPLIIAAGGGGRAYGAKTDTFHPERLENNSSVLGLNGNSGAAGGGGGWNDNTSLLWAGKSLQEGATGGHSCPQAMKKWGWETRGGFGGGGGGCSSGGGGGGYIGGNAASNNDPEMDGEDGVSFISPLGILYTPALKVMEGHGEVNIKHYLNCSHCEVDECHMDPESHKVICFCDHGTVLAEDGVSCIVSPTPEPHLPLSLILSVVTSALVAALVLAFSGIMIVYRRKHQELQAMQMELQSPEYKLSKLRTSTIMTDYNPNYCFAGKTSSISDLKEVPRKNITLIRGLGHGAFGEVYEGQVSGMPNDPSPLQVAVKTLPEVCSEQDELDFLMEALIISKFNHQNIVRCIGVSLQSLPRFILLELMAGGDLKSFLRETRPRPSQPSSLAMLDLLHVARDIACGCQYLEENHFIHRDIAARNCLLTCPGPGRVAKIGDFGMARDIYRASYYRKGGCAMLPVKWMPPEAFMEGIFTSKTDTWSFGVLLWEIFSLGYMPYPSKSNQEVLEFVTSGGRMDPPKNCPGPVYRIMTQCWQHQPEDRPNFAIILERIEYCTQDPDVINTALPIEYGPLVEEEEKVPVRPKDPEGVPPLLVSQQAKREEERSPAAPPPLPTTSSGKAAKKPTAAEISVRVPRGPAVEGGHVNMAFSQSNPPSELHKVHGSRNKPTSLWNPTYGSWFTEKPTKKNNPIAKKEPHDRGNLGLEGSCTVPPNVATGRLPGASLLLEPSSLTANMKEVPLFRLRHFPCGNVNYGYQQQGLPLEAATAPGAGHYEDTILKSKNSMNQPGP
UniProt P10398: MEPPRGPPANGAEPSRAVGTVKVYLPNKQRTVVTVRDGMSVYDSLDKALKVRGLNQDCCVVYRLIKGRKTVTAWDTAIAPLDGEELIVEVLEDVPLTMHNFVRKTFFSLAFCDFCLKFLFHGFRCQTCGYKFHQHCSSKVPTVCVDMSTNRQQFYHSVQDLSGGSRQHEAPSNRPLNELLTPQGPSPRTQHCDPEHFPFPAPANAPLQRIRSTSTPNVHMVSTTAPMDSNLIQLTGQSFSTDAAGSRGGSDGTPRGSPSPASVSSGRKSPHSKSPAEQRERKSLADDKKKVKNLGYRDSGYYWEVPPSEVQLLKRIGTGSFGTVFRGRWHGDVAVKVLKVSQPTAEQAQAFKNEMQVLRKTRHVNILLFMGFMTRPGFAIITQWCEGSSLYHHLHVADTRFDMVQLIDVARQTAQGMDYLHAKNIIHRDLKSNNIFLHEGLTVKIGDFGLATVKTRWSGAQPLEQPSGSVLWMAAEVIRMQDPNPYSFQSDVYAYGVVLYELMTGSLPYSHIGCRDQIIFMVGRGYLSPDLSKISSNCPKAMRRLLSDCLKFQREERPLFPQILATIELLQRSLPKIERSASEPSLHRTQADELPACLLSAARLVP
UniProt Q96GD4, whole entry: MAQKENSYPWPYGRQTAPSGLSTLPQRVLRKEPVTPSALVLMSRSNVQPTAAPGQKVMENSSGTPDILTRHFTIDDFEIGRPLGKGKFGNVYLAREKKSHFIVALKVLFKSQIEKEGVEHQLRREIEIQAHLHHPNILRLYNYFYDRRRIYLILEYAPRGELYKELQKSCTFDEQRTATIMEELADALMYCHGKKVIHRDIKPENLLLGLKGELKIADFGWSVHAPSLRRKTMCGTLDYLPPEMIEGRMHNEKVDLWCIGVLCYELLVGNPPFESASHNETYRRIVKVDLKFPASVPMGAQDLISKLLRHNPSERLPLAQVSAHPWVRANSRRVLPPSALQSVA
UniProt Q9UQB9: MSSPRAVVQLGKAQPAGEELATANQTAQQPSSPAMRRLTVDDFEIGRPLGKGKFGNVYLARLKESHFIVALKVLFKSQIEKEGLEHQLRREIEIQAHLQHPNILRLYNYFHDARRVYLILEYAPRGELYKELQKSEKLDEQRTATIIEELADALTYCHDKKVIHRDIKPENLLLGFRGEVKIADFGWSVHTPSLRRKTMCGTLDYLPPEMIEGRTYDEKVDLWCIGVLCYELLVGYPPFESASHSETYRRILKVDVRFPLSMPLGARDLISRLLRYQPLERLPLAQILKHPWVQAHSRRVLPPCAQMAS
UniProt P51451: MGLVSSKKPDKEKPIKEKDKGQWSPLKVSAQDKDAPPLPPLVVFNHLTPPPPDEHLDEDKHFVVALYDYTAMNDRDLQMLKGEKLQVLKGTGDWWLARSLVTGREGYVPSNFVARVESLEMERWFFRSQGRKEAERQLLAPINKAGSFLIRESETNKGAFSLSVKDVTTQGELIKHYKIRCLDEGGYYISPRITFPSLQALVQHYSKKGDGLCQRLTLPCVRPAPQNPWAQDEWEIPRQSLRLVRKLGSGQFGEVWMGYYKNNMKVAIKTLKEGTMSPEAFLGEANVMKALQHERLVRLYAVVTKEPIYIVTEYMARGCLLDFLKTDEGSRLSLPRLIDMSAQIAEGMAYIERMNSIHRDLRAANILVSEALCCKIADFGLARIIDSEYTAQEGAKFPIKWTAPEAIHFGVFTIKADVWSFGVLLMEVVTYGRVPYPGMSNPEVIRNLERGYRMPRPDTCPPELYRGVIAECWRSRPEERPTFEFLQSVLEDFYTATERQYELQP
UniProt P51813: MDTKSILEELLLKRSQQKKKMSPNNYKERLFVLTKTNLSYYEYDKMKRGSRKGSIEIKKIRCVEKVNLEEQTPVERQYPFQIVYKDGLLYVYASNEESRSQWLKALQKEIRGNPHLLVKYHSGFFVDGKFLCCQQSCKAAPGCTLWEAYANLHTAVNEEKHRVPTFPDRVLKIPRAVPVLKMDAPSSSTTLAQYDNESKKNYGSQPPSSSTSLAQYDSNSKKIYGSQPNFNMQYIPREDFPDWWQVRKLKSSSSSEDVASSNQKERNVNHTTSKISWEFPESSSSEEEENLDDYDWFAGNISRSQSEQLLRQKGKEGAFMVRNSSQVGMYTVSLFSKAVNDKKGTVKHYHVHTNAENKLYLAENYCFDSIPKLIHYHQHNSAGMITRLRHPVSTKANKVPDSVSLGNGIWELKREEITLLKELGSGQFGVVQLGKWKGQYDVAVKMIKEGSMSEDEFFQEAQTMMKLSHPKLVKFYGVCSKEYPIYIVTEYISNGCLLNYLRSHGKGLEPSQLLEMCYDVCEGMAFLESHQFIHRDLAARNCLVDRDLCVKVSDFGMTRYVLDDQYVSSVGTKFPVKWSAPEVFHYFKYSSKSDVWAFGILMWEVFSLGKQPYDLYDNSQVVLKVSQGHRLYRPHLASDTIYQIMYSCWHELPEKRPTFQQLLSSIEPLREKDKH
UniProt P15056, whole entry, looked up: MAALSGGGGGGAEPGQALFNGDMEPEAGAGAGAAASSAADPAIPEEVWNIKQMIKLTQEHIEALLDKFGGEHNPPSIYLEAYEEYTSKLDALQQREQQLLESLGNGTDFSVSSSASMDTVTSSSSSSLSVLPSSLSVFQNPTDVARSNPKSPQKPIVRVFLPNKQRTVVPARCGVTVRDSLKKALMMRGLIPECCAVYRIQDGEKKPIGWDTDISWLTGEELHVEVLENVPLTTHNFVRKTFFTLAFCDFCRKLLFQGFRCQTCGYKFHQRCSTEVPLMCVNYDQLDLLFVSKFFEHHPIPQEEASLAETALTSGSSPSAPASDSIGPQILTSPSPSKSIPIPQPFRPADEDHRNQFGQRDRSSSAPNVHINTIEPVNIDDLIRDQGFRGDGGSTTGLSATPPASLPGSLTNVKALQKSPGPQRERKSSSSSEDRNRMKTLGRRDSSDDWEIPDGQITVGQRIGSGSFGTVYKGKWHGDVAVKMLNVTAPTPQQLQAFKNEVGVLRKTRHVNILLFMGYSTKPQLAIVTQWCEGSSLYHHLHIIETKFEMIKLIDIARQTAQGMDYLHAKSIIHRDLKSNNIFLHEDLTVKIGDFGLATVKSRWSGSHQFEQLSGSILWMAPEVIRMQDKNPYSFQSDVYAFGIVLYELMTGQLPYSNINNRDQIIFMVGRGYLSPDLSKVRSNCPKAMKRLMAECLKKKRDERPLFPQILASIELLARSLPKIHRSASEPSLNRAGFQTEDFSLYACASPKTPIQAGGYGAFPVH

What was measured:
Experiment in all cases: kinase-Nluc reporter destabilization hit call (1 = scored as downregulated) (binary); higher = compound decreases kinase abundance
Settings in all cases: K562; 2-18 h
ABL1 = ABL1 (UniProt P00519)
AKT1 = AKT1 (UniProt P31749)
ALK = ALK (UniProt Q9UM73)
ARAF = ARAF (UniProt P10398)
AURKA = AURKA (UniProt O14965)
AURKB = AURKB (UniProt Q96GD4)
AURKC = AURKC (UniProt Q9UQB9)
BLK = BLK (UniProt P51451)
BMX = BMX (UniProt P51813)
BRAF = BRAF (UniProt P15056)

Measured: kinase-Nluc reporter destabilization hit call

CC(C)CN[C@H]1CS(=O)(=O)C[C@@H]1S(=O)(=O)c1ccc(Cl)cc1 (10 µM)
inactive: ABL1 = 0 | AKT1 = 0 | ALK 0 | ARAF 0 | AURKA 0 | AURKB 0 | AURKC 0 | BLK 0 | BMX 0 | BRAF 0

Cc1cc(Nc2nc(N[C@@H](C)c3ccc(F)cc3)c(C#N)cc2F)n[nH]1 (10 µM)
inactive: ABL1 = 0 | AKT1 = 0 | ALK 0 | ARAF 0 | AURKA 0 | AURKB 0 | AURKC 0 | BLK 0 | BMX 0 | BRAF 0

CC(C)NC(=O)N1CC[C@H](NC2=Nc3cc(F)ccc3N(CC(F)F)c3ccc(Cl)cc32)C1 (10 µM)
inactive: ABL1 = 0 | AKT1 = 0 | ALK 0 | ARAF 0 | AURKA 0 | AURKB 0 | AURKC 0 | BLK 0 | BMX 0 | BRAF 0

Cc1cc(-c2cc(OC(=O)c3ccccc3)ccc2Cl)cc2nnc(Nc3ccc(OCCN4CCCC4)cc3)nc12 (0.5 µM)
inactive: ABL1 = 0 | AKT1 = 0 | ALK 0 | ARAF 0 | AURKA 0 | AURKB 0 | AURKC 0 | BLK 0 | BMX 0 | BRAF 0

O=C(Nc1ccc(F)cc1F)[C@H](NC(=S)Nc1cc(C(F)(F)F)cc(C(F)(F)F)c1)c1ccccc1 (2.5 µM)
inactive: ABL1 = 0 | AKT1 = 0 | ALK 0 | ARAF 0 | AURKA 0 | AURKB 0 | AURKC 0 | BLK 0 | BMX 0 | BRAF 0

O=C(/C=C/c1ccc(O)c(O)c1)c1ccc(O[C@@H]2O[C@H](CO)[C@@H](O)[C@H](O)[C@H]2O)c(O)c1O [Marein] (10 µM)
inactive: ABL1 = 0 | AKT1 = 0 | ALK 0 | ARAF 0 | AURKA 0 | AURKB 0 | AURKC 0 | BLK 0 | BMX 0 | BRAF 0
